According to article PMC11848624:
These are yes or no findings as the source states them, for the method shown. Binding seen in cells or lysates may run through a third protein. Some entries that bind do so weakly or less than the wild type. For part of these data: Where a sequence is shown, tags or fusion partners need not be part of it.

By UniProt entry, the sequences of proteins in these tests, tags left out.
UniProt P19474: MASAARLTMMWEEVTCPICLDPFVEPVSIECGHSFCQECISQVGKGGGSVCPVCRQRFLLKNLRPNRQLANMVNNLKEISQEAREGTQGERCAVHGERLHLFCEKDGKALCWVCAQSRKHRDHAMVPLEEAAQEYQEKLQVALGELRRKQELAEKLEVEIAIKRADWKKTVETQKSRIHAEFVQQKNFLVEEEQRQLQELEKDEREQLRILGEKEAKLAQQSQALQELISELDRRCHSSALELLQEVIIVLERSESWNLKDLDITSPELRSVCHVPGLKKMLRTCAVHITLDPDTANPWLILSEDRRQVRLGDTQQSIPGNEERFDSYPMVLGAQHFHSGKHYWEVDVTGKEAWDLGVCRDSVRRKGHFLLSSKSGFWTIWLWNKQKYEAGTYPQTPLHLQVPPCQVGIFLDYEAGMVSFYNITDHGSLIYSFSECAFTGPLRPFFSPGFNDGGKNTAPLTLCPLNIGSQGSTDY

Tests used:
FLAG-TRIM21 [1] = molecular target: FLAG-TRIM21 (UniProt P19474); assay: co-IP; BXPC3 and SW1990 cells overexpressing FLAG-TRIM21, WT cells as negative control; immunoprecipitation with FLAG-magnetic beads, overnight at 4 °C; blot for EPHX1
[2] = molecular target: TRIM21 (endogenous) (human (endogenous in BXPC3 and SW1990)) (UniProt P19474); assay: co-IP; endogenous proteins in BXPC3 and SW1990 cells (Figure S4D,E)
FLAG-TRIM21 [3] = molecular target: FLAG-TRIM21 (UniProt P19474); assay: co-IP; BXPC3 and SW1990 cells transfected with FLAG-TRIM21 and HIS-EPHX1, treated 48 h with different concentrations of Bezafibrate
FLAG-TRIM21 [4] = molecular target: FLAG-TRIM21 (UniProt P19474); assay: co-IP; HIS-EPHX1^K105R compared with EPHX1 for the interaction with TRIM21 (Figure S5E); cells and bait not stated
FLAG-TRIM21 [5] = molecular target: FLAG-TRIM21 (UniProt P19474); assay: co-IP; HEK293T cells co-transfected with HIS-EPHX1 and full-length or truncated FLAG-TRIM21; bait not stated

Binder | binding (FLAG-TRIM21 [1]) | binding [2] | binding (FLAG-TRIM21 [3]) | binding (FLAG-TRIM21 [4]) | binding (FLAG-TRIM21 [5])
EPHX1 (endogenous) (enzyme, UniProt P07099 1-455) MWLEILLTSVLGFAIYWFISRDKEETLPLEDGWWGPGTRSAAREDDSIRPFKVETSDEEIHDLHQRIDKFRFTPPLEDSCFHYGFNSNYLKKVISYWRNEFDWKKQVEILNRYPHFKTKIEGLDIHFIHVKPPQLPAGHTPKPLLMVHGWPGSFYEFYKIIPLLTDPKNHGLSDEHVFEVICPSIPGYGFSEASSKKGFNSVATARIFYKLMLRLGFQEFYIQGGDWGSLICTNMAQLVPSHVKGLHLNMALVLSNFSTLTLLLGQRFGRFLGLTERDVELLYPVKEKVFYSLMRESGYMHIQCTKPDTVGSALNDSPVGLAAYILEKFSTWTNTEFRYLEDGGLERKFSLDDLLTNVMLYWTTGTIISSQRFYKENLGQGWMTQKHERMKVYVPTGFSAFPFELLHTPEKWVRFKYPKLISYSYMVRGGHFAAFEEPELLAQDIRKFLSVLERQ | binds | binds | – | – | –
HIS-EPHX1 (enzyme, UniProt P07099 1-455) MWLEILLTSVLGFAIYWFISRDKEETLPLEDGWWGPGTRSAAREDDSIRPFKVETSDEEIHDLHQRIDKFRFTPPLEDSCFHYGFNSNYLKKVISYWRNEFDWKKQVEILNRYPHFKTKIEGLDIHFIHVKPPQLPAGHTPKPLLMVHGWPGSFYEFYKIIPLLTDPKNHGLSDEHVFEVICPSIPGYGFSEASSKKGFNSVATARIFYKLMLRLGFQEFYIQGGDWGSLICTNMAQLVPSHVKGLHLNMALVLSNFSTLTLLLGQRFGRFLGLTERDVELLYPVKEKVFYSLMRESGYMHIQCTKPDTVGSALNDSPVGLAAYILEKFSTWTNTEFRYLEDGGLERKFSLDDLLTNVMLYWTTGTIISSQRFYKENLGQGWMTQKHERMKVYVPTGFSAFPFELLHTPEKWVRFKYPKLISYSYMVRGGHFAAFEEPELLAQDIRKFLSVLERQ | – | – | binds | binds | binds
HIS-EPHX1^K105R (enzyme, UniProt P07099 1-455) MWLEILLTSVLGFAIYWFISRDKEETLPLEDGWWGPGTRSAAREDDSIRPFKVETSDEEIHDLHQRIDKFRFTPPLEDSCFHYGFNSNYLKKVISYWRNEFDWKRQVEILNRYPHFKTKIEGLDIHFIHVKPPQLPAGHTPKPLLMVHGWPGSFYEFYKIIPLLTDPKNHGLSDEHVFEVICPSIPGYGFSEASSKKGFNSVATARIFYKLMLRLGFQEFYIQGGDWGSLICTNMAQLVPSHVKGLHLNMALVLSNFSTLTLLLGQRFGRFLGLTERDVELLYPVKEKVFYSLMRESGYMHIQCTKPDTVGSALNDSPVGLAAYILEKFSTWTNTEFRYLEDGGLERKFSLDDLLTNVMLYWTTGTIISSQRFYKENLGQGWMTQKHERMKVYVPTGFSAFPFELLHTPEKWVRFKYPKLISYSYMVRGGHFAAFEEPELLAQDIRKFLSVLERQ | – | – | – | binds | –
